# Laboratory results published in paper PMC4742150.
# The chains behind the UniProt entries cited, without tags or fusion partners.
# UniProt O14746: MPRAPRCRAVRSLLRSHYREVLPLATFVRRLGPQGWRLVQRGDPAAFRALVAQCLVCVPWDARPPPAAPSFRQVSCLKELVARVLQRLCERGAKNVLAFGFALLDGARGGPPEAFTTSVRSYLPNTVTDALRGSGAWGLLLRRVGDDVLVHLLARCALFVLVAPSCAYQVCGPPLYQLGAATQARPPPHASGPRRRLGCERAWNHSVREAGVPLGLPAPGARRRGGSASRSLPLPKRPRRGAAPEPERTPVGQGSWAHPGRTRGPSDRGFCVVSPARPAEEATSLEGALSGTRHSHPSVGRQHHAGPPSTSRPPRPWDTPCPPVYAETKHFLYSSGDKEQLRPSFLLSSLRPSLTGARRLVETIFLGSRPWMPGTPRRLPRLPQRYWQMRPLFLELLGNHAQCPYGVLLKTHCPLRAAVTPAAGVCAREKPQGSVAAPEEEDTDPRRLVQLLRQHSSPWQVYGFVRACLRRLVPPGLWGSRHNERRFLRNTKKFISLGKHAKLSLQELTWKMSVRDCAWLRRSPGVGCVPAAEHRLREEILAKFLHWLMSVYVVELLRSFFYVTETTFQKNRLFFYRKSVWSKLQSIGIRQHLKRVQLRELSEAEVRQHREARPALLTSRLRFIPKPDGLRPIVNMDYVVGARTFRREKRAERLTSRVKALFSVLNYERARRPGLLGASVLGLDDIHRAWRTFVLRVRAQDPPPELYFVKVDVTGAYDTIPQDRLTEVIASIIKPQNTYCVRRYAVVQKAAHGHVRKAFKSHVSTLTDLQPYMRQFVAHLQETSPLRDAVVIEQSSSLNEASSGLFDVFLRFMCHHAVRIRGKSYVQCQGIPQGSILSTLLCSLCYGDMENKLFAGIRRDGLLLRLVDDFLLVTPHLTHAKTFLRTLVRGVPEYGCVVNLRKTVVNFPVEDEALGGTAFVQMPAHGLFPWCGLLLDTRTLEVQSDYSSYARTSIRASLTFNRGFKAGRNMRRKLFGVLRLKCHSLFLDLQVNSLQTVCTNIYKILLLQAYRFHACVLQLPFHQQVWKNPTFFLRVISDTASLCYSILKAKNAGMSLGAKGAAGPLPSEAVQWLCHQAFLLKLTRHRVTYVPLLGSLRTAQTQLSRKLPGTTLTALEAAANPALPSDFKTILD
# Results are given in words; binding and its absence hold for the method and conditions named. Binding seen in cells or lysates may run through a third protein.
# Molecular target: human telomerase reverse transcriptase (human (endogenous in Cal27)) (UniProt O14746)
# Experiment: co-IP; endogenous proteins; whole cell lysate of Cal27 cells (1 mg total protein, IP lysis buffer, precleared) incubated with 2 ug anti-hTERT antibody or IgG control at 4 C, Protein G Plus/Protein A-agarose beads overnight; immunoblot for p-AKT, p-ERK and p53
substance,measurement,value
p53 (from UniProt P04637 1-393),binding,no binding
